Assay results published in the supplement of paper PMC10849652.
Some of the results follow. Residues, ends and D or L forms follow the SMILES beside them. *: point of attachment. Cbz = O=C(OCc1ccccc1)*

The chains behind the UniProt entries cited, without tags or fusion partners. Where a name states a change or a piece, a line headed by the entry shows the natural chain unless it says otherwise.
UniProt O75390: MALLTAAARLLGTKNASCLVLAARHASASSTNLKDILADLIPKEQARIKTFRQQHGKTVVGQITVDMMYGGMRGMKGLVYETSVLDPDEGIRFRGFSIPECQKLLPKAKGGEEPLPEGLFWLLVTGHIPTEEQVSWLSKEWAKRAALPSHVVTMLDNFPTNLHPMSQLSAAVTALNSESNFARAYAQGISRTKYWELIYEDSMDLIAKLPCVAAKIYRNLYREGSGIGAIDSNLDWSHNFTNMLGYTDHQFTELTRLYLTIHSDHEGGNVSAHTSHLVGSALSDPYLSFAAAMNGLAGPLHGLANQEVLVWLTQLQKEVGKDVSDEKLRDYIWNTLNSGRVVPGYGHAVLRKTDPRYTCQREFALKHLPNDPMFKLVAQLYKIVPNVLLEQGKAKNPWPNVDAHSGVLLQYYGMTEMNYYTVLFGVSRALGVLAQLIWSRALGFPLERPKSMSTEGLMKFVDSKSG
UniProt P67870, whole entry, looked up: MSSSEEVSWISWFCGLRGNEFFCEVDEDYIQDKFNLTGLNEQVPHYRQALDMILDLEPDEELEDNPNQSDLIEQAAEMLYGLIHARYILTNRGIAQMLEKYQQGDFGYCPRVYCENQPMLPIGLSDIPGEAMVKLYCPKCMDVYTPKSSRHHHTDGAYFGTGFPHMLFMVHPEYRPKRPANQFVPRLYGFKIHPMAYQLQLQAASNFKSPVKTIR
UniProt Q8N6G5: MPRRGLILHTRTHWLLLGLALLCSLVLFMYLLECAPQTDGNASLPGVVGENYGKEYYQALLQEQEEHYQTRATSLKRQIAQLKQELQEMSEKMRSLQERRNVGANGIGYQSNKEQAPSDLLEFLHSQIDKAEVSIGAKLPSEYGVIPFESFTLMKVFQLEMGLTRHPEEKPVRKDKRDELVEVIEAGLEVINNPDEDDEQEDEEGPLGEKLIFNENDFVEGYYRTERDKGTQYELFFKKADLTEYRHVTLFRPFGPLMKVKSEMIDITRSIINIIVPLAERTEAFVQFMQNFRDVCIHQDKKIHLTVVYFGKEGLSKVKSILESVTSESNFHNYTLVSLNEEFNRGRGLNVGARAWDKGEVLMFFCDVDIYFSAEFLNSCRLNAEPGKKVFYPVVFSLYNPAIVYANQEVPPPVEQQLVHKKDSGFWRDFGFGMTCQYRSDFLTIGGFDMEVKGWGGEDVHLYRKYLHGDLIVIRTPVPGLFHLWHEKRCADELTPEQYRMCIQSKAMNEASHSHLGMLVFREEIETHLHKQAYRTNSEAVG
UniProt Q8IUI8: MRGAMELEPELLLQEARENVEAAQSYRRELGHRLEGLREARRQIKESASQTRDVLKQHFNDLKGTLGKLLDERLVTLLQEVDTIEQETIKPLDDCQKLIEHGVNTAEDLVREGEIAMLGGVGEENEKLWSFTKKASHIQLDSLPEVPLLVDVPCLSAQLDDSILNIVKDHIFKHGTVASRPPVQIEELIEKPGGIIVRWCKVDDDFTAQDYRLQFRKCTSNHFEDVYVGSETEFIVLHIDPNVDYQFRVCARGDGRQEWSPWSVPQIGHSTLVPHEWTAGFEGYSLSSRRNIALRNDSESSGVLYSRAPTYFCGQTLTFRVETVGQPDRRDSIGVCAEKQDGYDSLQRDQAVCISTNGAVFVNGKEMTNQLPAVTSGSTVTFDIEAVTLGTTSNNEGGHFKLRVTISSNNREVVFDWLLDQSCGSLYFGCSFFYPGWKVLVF
UniProt P10606, whole entry, looked up: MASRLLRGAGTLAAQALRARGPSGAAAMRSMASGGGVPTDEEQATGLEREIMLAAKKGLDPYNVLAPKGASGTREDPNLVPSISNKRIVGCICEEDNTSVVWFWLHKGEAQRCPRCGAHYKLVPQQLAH
UniProt Q9UNS2: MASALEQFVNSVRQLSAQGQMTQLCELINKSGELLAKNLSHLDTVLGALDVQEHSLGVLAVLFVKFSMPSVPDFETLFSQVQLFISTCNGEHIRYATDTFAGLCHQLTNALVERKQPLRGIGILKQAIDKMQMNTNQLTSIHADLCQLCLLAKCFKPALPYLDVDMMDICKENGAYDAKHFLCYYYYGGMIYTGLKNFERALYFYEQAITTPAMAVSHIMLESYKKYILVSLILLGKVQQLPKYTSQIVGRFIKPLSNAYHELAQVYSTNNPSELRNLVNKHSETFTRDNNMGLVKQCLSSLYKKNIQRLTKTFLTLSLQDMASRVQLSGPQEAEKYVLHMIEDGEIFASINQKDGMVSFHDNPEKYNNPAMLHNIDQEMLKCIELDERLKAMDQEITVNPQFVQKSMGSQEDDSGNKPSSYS
UniProt Q99627: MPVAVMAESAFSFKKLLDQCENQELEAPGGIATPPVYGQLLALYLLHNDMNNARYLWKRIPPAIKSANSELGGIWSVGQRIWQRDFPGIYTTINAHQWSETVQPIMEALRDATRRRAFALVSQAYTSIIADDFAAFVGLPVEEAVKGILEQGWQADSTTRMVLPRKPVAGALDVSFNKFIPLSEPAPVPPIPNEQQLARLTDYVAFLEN
UniProt Q5RI15: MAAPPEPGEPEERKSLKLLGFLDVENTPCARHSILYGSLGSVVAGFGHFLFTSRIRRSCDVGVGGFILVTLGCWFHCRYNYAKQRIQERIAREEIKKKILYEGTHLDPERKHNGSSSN
UniProt Q8N668, whole entry, looked up: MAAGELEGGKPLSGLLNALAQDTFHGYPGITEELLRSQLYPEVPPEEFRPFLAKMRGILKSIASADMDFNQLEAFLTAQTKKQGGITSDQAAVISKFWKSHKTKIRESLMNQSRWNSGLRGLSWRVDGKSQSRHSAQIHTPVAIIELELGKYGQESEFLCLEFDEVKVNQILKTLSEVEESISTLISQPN
UniProt P23786: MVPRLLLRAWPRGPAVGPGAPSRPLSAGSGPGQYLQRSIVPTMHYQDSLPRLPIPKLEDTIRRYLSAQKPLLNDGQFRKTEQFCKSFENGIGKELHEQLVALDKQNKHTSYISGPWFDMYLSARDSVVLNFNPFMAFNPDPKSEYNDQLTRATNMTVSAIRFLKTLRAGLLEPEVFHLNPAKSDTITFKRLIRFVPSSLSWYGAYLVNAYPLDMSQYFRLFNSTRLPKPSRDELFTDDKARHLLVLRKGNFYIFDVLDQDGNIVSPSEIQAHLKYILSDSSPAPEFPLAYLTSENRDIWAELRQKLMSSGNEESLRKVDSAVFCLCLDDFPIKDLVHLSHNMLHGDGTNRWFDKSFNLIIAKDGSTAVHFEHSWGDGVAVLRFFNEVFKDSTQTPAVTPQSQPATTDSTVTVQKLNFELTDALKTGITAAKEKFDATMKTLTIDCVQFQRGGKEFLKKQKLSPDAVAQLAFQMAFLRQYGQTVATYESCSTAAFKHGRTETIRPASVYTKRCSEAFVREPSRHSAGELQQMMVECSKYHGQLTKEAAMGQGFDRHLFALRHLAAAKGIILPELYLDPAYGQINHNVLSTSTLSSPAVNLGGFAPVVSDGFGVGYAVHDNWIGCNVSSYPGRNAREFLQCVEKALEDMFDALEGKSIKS
UniProt P46108: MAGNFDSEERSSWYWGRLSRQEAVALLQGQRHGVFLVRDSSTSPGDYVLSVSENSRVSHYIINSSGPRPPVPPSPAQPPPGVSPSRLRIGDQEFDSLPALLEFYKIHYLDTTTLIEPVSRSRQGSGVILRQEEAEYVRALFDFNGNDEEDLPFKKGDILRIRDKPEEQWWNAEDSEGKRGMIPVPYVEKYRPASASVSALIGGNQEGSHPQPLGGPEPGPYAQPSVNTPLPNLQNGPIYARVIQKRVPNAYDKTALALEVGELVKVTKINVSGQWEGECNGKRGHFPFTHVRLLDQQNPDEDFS
UniProt P12074, whole entry, looked up: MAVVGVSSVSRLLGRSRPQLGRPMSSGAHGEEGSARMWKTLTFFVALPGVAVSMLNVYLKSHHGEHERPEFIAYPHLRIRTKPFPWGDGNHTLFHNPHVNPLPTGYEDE
UniProt O75208: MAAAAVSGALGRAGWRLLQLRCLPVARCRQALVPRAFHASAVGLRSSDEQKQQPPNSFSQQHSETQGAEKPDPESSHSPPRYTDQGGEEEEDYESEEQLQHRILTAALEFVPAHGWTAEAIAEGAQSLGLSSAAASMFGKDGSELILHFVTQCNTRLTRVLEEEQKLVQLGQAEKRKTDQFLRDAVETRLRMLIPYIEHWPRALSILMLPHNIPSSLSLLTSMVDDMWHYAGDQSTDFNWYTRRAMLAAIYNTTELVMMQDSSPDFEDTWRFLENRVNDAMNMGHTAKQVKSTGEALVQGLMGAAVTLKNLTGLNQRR
UniProt P24311, whole entry, looked up: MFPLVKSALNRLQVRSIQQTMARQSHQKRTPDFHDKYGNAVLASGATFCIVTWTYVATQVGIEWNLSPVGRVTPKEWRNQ
UniProt Q86X83, whole entry, looked up: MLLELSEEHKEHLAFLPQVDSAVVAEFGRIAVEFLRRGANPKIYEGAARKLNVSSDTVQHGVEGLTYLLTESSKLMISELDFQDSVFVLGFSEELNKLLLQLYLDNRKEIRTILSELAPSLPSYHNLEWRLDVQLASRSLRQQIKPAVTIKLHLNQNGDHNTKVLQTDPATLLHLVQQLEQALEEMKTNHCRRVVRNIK
UniProt Q6UUV9: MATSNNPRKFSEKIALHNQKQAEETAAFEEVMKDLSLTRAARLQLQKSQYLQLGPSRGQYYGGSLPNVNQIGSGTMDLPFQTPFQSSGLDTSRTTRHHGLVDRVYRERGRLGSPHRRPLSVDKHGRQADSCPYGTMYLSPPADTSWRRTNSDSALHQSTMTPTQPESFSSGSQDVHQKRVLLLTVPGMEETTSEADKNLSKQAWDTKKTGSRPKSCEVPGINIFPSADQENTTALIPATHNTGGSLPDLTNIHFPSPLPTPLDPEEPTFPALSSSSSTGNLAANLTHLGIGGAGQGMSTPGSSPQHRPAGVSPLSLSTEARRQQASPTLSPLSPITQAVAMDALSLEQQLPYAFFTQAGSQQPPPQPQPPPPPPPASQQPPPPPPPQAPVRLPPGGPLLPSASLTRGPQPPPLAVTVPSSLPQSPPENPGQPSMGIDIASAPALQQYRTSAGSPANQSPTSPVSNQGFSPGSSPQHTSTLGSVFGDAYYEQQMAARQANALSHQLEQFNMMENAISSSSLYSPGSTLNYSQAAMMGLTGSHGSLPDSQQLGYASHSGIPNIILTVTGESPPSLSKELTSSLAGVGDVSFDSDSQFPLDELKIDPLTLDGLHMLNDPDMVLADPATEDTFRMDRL
UniProt P52943: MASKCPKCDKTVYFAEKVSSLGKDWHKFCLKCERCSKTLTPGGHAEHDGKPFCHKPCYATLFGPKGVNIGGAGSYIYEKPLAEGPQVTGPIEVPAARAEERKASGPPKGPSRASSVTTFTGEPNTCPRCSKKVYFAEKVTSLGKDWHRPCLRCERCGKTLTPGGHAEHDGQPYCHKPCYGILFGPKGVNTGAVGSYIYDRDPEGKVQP
UniProt P12109: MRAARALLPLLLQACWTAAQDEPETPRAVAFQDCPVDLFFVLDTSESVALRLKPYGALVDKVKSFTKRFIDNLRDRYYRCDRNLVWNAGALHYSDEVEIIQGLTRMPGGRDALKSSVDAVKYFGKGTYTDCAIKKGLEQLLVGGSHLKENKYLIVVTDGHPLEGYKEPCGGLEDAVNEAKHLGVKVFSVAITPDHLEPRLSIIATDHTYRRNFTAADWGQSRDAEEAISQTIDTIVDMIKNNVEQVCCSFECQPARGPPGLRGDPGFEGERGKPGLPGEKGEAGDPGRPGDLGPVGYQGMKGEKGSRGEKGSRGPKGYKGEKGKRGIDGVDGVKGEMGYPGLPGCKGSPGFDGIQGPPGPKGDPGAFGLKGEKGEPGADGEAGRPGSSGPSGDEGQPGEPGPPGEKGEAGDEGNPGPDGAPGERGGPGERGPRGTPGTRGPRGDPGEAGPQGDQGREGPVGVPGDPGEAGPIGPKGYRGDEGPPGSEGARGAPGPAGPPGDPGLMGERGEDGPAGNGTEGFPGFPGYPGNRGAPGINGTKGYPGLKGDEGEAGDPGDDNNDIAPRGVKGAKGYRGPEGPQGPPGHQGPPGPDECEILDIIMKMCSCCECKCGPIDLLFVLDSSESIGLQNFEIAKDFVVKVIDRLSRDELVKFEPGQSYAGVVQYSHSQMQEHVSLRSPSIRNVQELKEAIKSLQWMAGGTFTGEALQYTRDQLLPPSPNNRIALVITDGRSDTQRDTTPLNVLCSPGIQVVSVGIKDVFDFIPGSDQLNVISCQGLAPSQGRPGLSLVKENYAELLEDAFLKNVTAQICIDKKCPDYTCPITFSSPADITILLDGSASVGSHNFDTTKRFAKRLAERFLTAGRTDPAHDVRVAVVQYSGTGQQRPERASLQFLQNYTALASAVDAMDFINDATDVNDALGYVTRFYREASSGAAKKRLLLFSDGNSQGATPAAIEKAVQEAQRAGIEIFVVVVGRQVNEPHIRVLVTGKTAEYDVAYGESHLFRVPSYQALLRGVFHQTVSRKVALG
UniProt Q9UJA2: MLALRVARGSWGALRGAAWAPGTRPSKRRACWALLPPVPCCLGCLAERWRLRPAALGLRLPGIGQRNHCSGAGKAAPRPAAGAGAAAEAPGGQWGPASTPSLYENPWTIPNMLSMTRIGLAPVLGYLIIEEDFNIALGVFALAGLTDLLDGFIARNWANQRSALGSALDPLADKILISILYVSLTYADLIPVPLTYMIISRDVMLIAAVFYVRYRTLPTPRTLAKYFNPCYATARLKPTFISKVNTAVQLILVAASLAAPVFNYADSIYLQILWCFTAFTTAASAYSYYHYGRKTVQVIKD

Legend:
Experiment in all cases: log2 fold change, soluble protein after heating vs DMSO (PISA); higher = thermal stabilisation; K562 cells, 10 uM, 30 min; active = over 0.2 and 3.5 SD of the protein, either way, in both replicates (recomputed)
IRAK-1-4 Inhibitor I = compound: C1COCCN1CCN2C3=CC=CC=C3N=C2NC(=O)C4=CC(=CC=C4)[N+](=O)[O-] [IRAK-1-4 Inhibitor I]
In short: (§1)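 Values are thermal stability changes relative to control samples and are taken from duplicates. They are stated as log2 fold changes. Before quantification by TMTpro 16plex LC-MS/MS with equalised channel sums, K562 cells at 2×10^6 cells/mL were treated with 10 μM compound for 30 min, heated in aliquots for 3 min across 48°C-58°C, pooled, extracted in PBS with 0.5% NP-40 at 4°C, and centrifuged at 21,000xg for 90 min to give the soluble supernatant.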

ibrutinib = compound: C=CC(=O)N1CCC[C@@H](n2nc(-c3ccc(Oc4ccccc4)cc3)c3c(N)ncnc32)C1 [ibrutinib]
In short: as §1

[1] = compound: CC(=O)c1cnc2ccc(-c3cc(Cl)c(O)c(Cl)c3)nc2c1N[C@H]1CC[C@H](CN(C)C)CC1
In short: as §1

ralimetinib = compound: CC(C)(C)Cn1c(N)nc2ccc(-c3[nH]c(C(C)(C)C)nc3-c3ccc(F)cc3)nc21 [ralimetinib]
In short: as §1

[2] = compound: CC(C)(O)CC(=O)NCCn1ccc2ncnc(Nc3ccc(Oc4cccc(C(F)(F)F)c4)c(Cl)c3)c21
In short: as §1

[3] = compound: CC(C)C1=C2N=C(C=C(N2N=C1)NCC3=CC=CC=C3)NCCCCCCN
In short: as §1

[4] = compound: CC(C)C[C@@H](C=O)NC(=O)[C@H](CC(C)C)NC(=O)[C@H](CC(C)C)NC(=O)OCc1ccccc1
In short: as §1

pinometostat = compound: CC(C)N(C[C@H]1O[C@@H](n2cnc3c(N)ncnc32)[C@H](O)[C@@H]1O)[C@H]1C[C@@H](CCc2nc3cc(C(C)(C)C)ccc3[nH]2)C1 [pinometostat]
In short: as §1

[5] = compound: CC1=C(C2=C(C=C1)C(=O)C3=CC=CC=C3N2CCCN)C
In short: as §1

[6] = compound: CC1=C(C(CC(=O)N1)C2=CC=C(C=C2)C(F)(F)F)C(=O)NC3=C(C=C4C(=C3)C=NN4)F
In short: as §1

Target	log2 fold change (IRAK-1-4 Inhibitor I)	log2 fold change (ibrutinib)	log2 fold change [1]	log2 fold change (ralimetinib)	log2 fold change [2]	log2 fold change [3]	log2 fold change [4]	log2 fold change (pinometostat)	log2 fold change [5]	log2 fold change [6]
CS (UniProt O75390)	inactive: 0.02	inactive: -0.004	inactive: 0.002	inactive: -0.04	inactive: -0.178	inactive: -0.148	inactive: -0.069	inactive: -0.05	inactive: 0.008	
CSNK2B (UniProt P67870)	inactive: -0.003	inactive: -0.014	active: 0.266	inactive: -0.006	inactive: -0.021	inactive: -0.087	inactive: -0.003	inactive: 0.044	inactive: 0.096	
COX15 (UniProt Q7KZN9)	inactive: 0.022	inactive: -0.04	inactive: 0.027	inactive: -0.03	inactive: -0.036	inactive: -0.04	inactive: 0.001	inactive: -0.022	inactive: 0.008	
CSGALNACT2 (UniProt Q8N6G5)	inactive: 0.078	inactive: -0.071	inactive: 0.036		inactive: -0.128			inactive: 0.009		inactive: 0.101
CPNE7 (UniProt Q9UBL6)	inactive: -0.012	inactive: -0.022	inactive: -0.037	inactive: -0.019		inactive: -0.017	inactive: -0.002	inactive: -0.096	inactive: -0.031	inactive: -0.061
CPEB4 (UniProt Q17RY0)	inactive: -0.025	inactive: -0.014	inactive: -0.158	inactive: -0.01			inactive: 0.09	inactive: 0.02	inactive: 0.012	
CRLF3 (UniProt Q8IUI8)	inactive: 0	inactive: -0.047	inactive: -0.079	inactive: 0.008	inactive: -0.122	inactive: -0.166	inactive: 0.013	inactive: -0.001	inactive: -0.035	
COX5B (UniProt P10606)	inactive: 0.008	inactive: -0.012	inactive: -0.079	inactive: 0	inactive: 0.106	active: 0.428	inactive: -0.082	inactive: -0.071	inactive: 0.204	
COPS3 isoform 2 (UniProt Q9UNS2)	inactive: 0.098	inactive: -0.015	inactive: -0.191	inactive: -0.214	inactive: -0.097		inactive: 0.258	inactive: 0.071	inactive: 0.053	
COPS8 (UniProt Q99627)	inactive: -0.006	inactive: 0.039	inactive: -0.011	inactive: -0.042	inactive: 0.031	inactive: 0.043	inactive: 0.027	inactive: -0.021	inactive: 0.13	
CPSF3 (UniProt Q9UKF6)	inactive: -0.044	inactive: -0.04	inactive: 0.026	inactive: -0.006	inactive: 0.028	inactive: -0.052	inactive: 0.035	inactive: 0.036	inactive: -0.013	
COX20 isoform 2 (UniProt Q5RI15)	inactive: -0.019	inactive: 0.043	inactive: -0.022	inactive: -0.055	inactive: 0.016	inactive: 0.006	inactive: 0	inactive: -0.018	inactive: 0.019	
COMMD1 (UniProt Q8N668)	inactive: -0.033	inactive: -0.083		inactive: 0.036	inactive: 0.06	inactive: -0.177	inactive: 0.19	inactive: 0.046	inactive: 0.006	
CPT2 (UniProt P23786)	inactive: 0.101	inactive: 0.095	inactive: 0.201	inactive: -0.079	active: -0.704	inactive: -0.488	inactive: 0.16	inactive: -0.145	inactive: 0.256	
CRK (UniProt P46108)	inactive: -0.046	inactive: -0.097	active: -0.887	inactive: -0.013	inactive: -0.007	inactive: -0.003	inactive: 0.032	inactive: -0.037	inactive: 0.07	
COMT (UniProt P21964)	inactive: 0.01	inactive: -0.032	inactive: -0.065	inactive: -0.043	inactive: -0.007	inactive: 0.006	inactive: -0.039	inactive: -0.024	inactive: 0.053	
COX6A1 (UniProt P12074)	inactive: 0.169	inactive: 0.093	inactive: -0.033	inactive: -0.075		inactive: 0.072	inactive: 0.021	inactive: 0.131	inactive: 0.027	inactive: 0.119

Some of the entries so far, in CSV form:
Target,log2 fold change (IRAK-1-4 Inhibitor I),log2 fold change (ibrutinib),log2 fold change [1],log2 fold change (ralimetinib),log2 fold change [2],log2 fold change [3],log2 fold change [4],log2 fold change (pinometostat),log2 fold change [5],log2 fold change [6]
CSNK2B (UniProt P67870),inactive: -0.003,inactive: -0.014,active: 0.266,inactive: -0.006,inactive: -0.021,inactive: -0.087,inactive: -0.003,inactive: 0.044,inactive: 0.096,
COX15 (UniProt Q7KZN9),inactive: 0.022,inactive: -0.04,inactive: 0.027,inactive: -0.03,inactive: -0.036,inactive: -0.04,inactive: 0.001,inactive: -0.022,inactive: 0.008,

The results go on:

Target	log2 fold change (IRAK-1-4 Inhibitor I)	log2 fold change (ibrutinib)	log2 fold change [1]	log2 fold change (ralimetinib)	log2 fold change [2]	log2 fold change [3]	log2 fold change [4]	log2 fold change (pinometostat)	log2 fold change [5]	log2 fold change [6]
COQ9 (UniProt O75208)	inactive: 0.005	inactive: 0.03	inactive: -0.007	inactive: -0.055	inactive: 0.085	inactive: -0.092	inactive: -0.024	inactive: -0.062	inactive: 0.043	
COX7C (UniProt P15954)	inactive: -0.013	inactive: 0.057	inactive: -0.013	inactive: 0.301	inactive: 0.041	inactive: 0.184	inactive: 0.074	inactive: 0.092	inactive: 0.009	
COX7B (UniProt P24311)	inactive: 0.045	inactive: 0.074	inactive: 0.034		inactive: -0.011	inactive: 0.112		inactive: -0.139	inactive: 0.266	
COPS3 (UniProt Q9UNS2)	inactive: 0.029	inactive: 0.011	inactive: -0.023	inactive: -0.096	inactive: -0.014	inactive: 0.028	inactive: -0.065	inactive: -0.046	inactive: -0.003	
COMMD2 (UniProt Q86X83)	inactive: -0.009	inactive: -0.038	inactive: -0.119	inactive: -0.023	inactive: -0.179	inactive: -0.271	inactive: 0.007	inactive: 0.037	inactive: 0.01	
CPSF1 (UniProt Q10570)	inactive: -0.006	inactive: -0.007	inactive: 0.064	inactive: 0	inactive: 0.036	inactive: -0.009	inactive: 0.075	inactive: 0.142	inactive: -0.093	
CRTC1 isoform 2 (UniProt Q6UUV9)	inactive: 0.026	inactive: -0.061	inactive: -0.023	inactive: 0.025	inactive: -0.042	inactive: 0.112	inactive: -0.041	inactive: -0.024	inactive: 0.072	
CRIP2 isoform 2 (UniProt P52943)	inactive: 0.023	inactive: -0.015	inactive: 0.06		inactive: 0.027	inactive: -0.103		inactive: 0.016	inactive: -0.283	inactive: -0.026
CPSF7 isoform 3 (UniProt Q8N684)	inactive: -0.037	inactive: 0	active: -0.242	inactive: 0.003	inactive: -0.002	inactive: 0.02	inactive: -0.045	inactive: -0.028	active: 0.236	
CSNK2A2 (UniProt P19784)	inactive: 0.033	inactive: 0.006	active: 0.585	inactive: 0.001	inactive: -0.065	inactive: 0.026	inactive: -0.029	inactive: 0.149	active: 0.235	
COL6A1 (UniProt P12109)	inactive: 0.029	inactive: 0.332	inactive: 0.077	inactive: -0.089		inactive: 0.195	inactive: 0.071	inactive: 0.025	inactive: -0.125	inactive: 0.097
CRYBB1 (UniProt P53674)	inactive: 0.193				inactive: 0	inactive: 0.173		inactive: -0.25		
CSNK1A1 isoform 3 (UniProt P48729)		inactive: 0.029								
CP (UniProt P00450)		inactive: 0.193		inactive: 0.242			inactive: -0.076			
CRLS1 (UniProt Q9UJA2)	inactive: -0.03					inactive: 0.036		inactive: -0.071	inactive: -0.005	
CR1L (UniProt Q2VPA4)						inactive: 0.074				
